The target in experiment [1] is T1, ClC-7, C-terminally GFP-tagged (human) (UniProt P51798).
T1 sequence: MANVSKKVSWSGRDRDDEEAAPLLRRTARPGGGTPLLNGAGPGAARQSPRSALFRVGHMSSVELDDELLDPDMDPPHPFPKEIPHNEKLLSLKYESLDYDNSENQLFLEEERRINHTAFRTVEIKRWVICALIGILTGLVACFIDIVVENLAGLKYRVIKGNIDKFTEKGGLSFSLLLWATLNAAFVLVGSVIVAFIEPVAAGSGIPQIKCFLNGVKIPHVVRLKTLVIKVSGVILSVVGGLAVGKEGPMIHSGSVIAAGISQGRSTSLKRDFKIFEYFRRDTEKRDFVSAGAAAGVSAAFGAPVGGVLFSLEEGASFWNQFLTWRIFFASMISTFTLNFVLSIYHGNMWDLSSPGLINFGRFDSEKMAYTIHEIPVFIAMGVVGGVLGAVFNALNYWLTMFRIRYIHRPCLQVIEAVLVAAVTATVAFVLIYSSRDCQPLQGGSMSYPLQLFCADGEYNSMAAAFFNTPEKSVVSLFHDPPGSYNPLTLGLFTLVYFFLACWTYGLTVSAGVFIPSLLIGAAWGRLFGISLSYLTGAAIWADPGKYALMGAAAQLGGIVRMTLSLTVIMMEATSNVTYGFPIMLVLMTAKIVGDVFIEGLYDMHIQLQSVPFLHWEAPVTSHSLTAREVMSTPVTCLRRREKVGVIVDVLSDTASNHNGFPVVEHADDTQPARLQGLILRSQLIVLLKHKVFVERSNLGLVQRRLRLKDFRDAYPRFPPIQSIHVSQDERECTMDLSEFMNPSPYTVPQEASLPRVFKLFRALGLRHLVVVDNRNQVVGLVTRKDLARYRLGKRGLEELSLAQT
Nature of the experiment: FRET or BRET; FLIM-FRET in co-transfected HEK293T cells 24 h after transfection; GFP donor (488 nm), mCherry acceptor; efficiency from the donor lifetime (phasor plot) against donor-only cells.

Protein sequences, listed by entry. Tags and fused reporters are not part of them. Residues count along the entry.
UniProt P51793: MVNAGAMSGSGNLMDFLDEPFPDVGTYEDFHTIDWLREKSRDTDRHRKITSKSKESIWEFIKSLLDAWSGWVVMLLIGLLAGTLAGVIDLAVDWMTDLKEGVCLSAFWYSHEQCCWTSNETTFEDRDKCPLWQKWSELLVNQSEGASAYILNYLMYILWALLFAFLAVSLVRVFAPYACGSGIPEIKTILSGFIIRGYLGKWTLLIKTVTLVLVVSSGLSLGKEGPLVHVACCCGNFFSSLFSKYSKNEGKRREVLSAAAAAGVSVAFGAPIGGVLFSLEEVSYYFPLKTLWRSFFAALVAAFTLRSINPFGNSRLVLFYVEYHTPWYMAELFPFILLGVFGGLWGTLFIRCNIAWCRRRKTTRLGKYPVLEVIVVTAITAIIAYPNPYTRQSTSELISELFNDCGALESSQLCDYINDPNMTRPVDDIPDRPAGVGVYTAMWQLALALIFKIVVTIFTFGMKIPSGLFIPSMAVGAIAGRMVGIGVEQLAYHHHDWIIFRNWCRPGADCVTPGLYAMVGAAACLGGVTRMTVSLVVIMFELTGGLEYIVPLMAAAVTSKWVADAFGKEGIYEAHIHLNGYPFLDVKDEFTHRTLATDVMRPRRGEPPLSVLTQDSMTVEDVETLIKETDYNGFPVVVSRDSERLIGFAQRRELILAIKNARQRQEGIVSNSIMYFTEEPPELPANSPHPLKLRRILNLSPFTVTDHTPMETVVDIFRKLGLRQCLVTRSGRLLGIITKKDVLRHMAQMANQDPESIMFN
UniProt Q9JJR8, residues 35-199: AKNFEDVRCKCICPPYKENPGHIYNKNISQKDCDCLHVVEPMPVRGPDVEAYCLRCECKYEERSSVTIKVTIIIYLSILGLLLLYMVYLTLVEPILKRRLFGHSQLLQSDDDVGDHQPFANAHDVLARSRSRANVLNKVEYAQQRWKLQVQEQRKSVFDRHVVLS

The target of experiment [2] is ClC-4, mCherry-tagged (human) (UniProt P51793). The experiment is described as above.

Results are given in words; binding and its absence hold for the method and conditions named. Binding seen in cells or lysates may run through a third protein. Some entries that bind do so weakly or less than the wild type. For some assays here: Sequences can lack the tags named with a protein.

For the substance “TMEM9 Domain Family Member B (TMEM9B), C-terminally mCherry-tagged (from UniProt Q9JJR8 35-199)”, the binding entry in experiment [1] is on record as “no binding”.
As to “TMEM9 Domain Family Member B (TMEM9B), C-terminally GFP-6xHis-tagged (from UniProt Q9JJR8 35-199)”, the binding result in experiment [2] was “binds”.

These data come from PMC11355779.
